In paper PMC11375261:
Results are given in words; binding and its absence hold for the method and conditions named. In cells and extracts the contact can be indirect. Binding calls can cover weak binding; strength is not graded here. Sequences can lack the tags named with a protein.

Protein sequences, listed by entry. Tags and fused reporters are not part of them. Lines headed by an entry give the natural chain unless they say otherwise; changes in a name come on top.
UniProt Q92581: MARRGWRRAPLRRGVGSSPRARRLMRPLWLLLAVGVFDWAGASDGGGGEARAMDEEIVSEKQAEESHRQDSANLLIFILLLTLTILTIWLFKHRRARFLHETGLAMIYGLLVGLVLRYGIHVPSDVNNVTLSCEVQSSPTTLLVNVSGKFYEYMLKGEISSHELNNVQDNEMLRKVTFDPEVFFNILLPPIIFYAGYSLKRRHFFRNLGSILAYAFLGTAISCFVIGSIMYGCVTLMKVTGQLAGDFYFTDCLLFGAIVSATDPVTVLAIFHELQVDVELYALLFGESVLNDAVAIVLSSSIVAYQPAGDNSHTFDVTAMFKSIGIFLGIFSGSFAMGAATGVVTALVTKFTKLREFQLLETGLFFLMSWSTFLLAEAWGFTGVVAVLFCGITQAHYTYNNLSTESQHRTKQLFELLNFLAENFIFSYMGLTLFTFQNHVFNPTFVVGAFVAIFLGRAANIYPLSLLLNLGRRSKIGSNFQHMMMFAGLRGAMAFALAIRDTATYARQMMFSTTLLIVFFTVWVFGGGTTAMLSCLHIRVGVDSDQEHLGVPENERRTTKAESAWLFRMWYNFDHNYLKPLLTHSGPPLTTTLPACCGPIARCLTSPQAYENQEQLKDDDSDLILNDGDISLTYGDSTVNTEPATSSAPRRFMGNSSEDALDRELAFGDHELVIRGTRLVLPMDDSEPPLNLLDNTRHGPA

Biological target: T1, c-Myc-GGA1 (mouse GGA1 in pCMV-c-Myc) (mouse) (UniProt Q8R0H9)
T1 sequence: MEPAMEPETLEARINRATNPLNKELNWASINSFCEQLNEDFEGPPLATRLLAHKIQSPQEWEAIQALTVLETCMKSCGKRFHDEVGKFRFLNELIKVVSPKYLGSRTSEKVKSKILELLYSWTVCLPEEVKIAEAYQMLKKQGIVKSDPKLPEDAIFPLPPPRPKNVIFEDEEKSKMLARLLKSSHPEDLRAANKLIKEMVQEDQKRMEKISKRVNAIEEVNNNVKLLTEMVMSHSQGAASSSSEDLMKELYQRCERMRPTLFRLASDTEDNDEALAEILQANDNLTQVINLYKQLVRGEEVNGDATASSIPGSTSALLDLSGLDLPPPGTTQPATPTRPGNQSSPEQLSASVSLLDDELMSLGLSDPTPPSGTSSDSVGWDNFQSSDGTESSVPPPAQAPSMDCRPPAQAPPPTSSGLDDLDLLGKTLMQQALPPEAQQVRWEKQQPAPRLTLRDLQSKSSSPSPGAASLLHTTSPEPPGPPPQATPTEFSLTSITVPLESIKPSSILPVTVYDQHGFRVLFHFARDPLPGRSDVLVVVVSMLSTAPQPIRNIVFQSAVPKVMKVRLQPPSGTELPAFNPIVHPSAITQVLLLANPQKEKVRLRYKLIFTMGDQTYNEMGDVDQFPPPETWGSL
Assay: co-IP; HEK293T cells cotransfected with c-Myc-GGA1 and an HA-tagged NHE construct; lysate precipitated with anti-c-Myc, blotted with anti-NHE6 or anti-HA

binding	Substance
binds	HA-tagged full-length human NHE6.2 (NHE6-HA) (from UniProt Q92581-1)
binds	HA-tagged cytoplasmic domain of human NHE6.2 (NHE6-CD) (from UniProt Q92581) (domain or fragment)
